Screen size: about 31,000 sequences; about 1,400 (4.5%) were called active.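 The calls were made as follows: active = median seed-adjusted z-score above 1 or below -1; inactive = the rest.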 Some of the results follow.
assay: Novel Modifiers of Survival Motor Neuron (SMN) Protein: Gene Identification via Genome-wide siRNA Screen; conditions: HEK293T SMN2-luciferase reporter, siRNA knockdown, 72 h; actives lie on both sides;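 also: luminescence tracks full-length SMN protein made from the SMN2 reporter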
Procedure, shortened: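 Luciferase signal, proportional to full-length SMN made from an SMN2 cDNA reporter in stable HEK293T cells, was read 72 h after siRNA reverse transfection. Values were expressed as MAD scores after non-targeting-control normalization and log10 conversion; seed analysis flagged off-targets.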

Row | Sequence | median seed-adjusted z-score
1 | ACAUUUUGAGUUGCAAGUATT against RICH2 | inactive: 0.4
2 | GUAGCAUUCCUCCAACAAATT against PIK3C2G | inactive: 0.0251
3 | CAGUUUAUCUUCGUAUACATT against ATXN2 | inactive: 0
4 | AGCGGAUCCUAGAACCAGATT against DPF2 | inactive: 0.373
5 | AGGUGUCCACGUUACGCAATT against MLX | inactive: 0.126
6 | GAAACCAAGUCAUAUGAAATT against CRTAP | inactive: 0.581
7 | GCAUUAACCGAGACAAGCATT against NCF2 | inactive: -0.201
8 | ACAUUGACAAGAUCGACGATT against IRX1 | inactive: 0.673
9 | GUUUUUGUCCUAGCCCAUATT against OTUD7A | inactive: -0.53
10 | GGAAGAGACUCAACACCUUTT against PLXNB3 | inactive: -0.0652
11 | GCAGGCACAUGGUUCCUCUTT against KCNJ10 | inactive: -0.0371
12 | GCUUUCCUCUCACCGCAAATT against TGM6 | inactive: 0.0811
13 | GAGCGACAGUGACCAAGGATT against KLF7 | inactive: 0.393
14 | ACUUCAUGCUUAACCAGUATT against CCBL1 | inactive: -0.0496
15 | GCGAAAAAGAUGACCGAAATT against SMC4 | inactive: 0.646
16 | CCGUCUACGUGCUGCACUATT against GPR17 | inactive: -0.309
17 | CCACCAAAGUUACCACGAATT against RBL1 | inactive: -0.0547
18 | CUAAAGGUCUUGUUACAUUTT against ASNS | active: -1.1
19 | AGAUCCCACAGAUUAGCUATT against GRM2 | inactive: -0.664
20 | GGACAAUGCAGGAGAUAGATT against SETDB1 | inactive: 0.0517
21 | AGAGGAAAAUCAACAAGAATT against CDX2 | inactive: 0.23
22 | GUUUCAGAAUUGUAGAGCATT against LHX8 | inactive: 0
23 | CAAAGUAUGUGGUUCGUGATT against GBE1 | inactive: 0
24 | GCAGAUGGAGUAAUCGUUUTT against SNX6 | inactive: 0
25 | GCCGCGCUGAUGAUCCUUATT against HTR1E | inactive: 0.00535
26 | GAGUCUACCUUACCAUAUATT against SC5DL | inactive: -0.439
27 | CCUUCAUAGUCAACAGCAATT against MGC16703 | inactive: 0.55

Row | Sequence | median seed-adjusted z-score
28 | GCUCAUUACUCACAGUAUATT against PTPLA | inactive: 0.291
29 | GGUGCGUAAGUAUCUGCUUTT against SLC12A9 | inactive: -0.0853
30 | GGCUCUUACAAGUCCUUAUTT against CHRM2 | inactive: 0.053
31 | GGGAUUCCAUGUGCCGACATT against GNB2 | inactive: 0.561
32 | CCAGCAUGCGGAAAACCUUTT against MYO18A | inactive: 0.174
33 | CAGAUUACAUUUACCCGAUTT against SEPHS1 | inactive: -0.102
34 | CCUUCCUCAUUAAAAAUUATT against SPRED1 | inactive: 0.387
35 | CCACCUUCCUUAUCGACAUTT against FZD8 | inactive: -0.177
36 | AAGGCAAGCUGGUUCAGAATT against ZNF367 | inactive: -0.377
37 | GGGAGAACAGCGACAAACATT against CBFB | inactive: -0.0379
38 | GAGUAUUUUGAAACCUUCATT against SULT1C2 | inactive: 0
39 | GAAUACCACCUGCUAUAAATT against COPS8 | inactive: 0.148
40 | GACUGUCACUUCUUACAGATT against ANGEL2 | inactive: -0.59
41 | GCAAAAUGAUCAUUAAUGATT against EIF3C | inactive: 0.56
42 | GGUCCAUGGUGGAAGACGATT against MAL | inactive: 0.0733
43 | CACUUGGAGUGGUGAAUCATT against NCL | active: 1.33
44 | GGAGCACAGUGACGAGAAUTT against RGS13 | inactive: 0.0487
45 | CCAACUGAGAAUAACUCAATT against GULP1 | inactive: -0.0337
46 | GAGAGCAUCCUGUACCGUATT against NTRK1 | inactive: -0.223
47 | ACACGUUCAUGCUAAAGCATT against HDAC5 | inactive: -0.342
48 | GAUACGAGAGAGCAAUUUATT against NUP107 | inactive: -0.692
49 | GCCGAUACCUUGUCAACCATT against SLC27A3 | inactive: -0.341
50 | GCAUCGCAAUGGUUGCAUUTT against SLC26A3 | inactive: -0.506
51 | GACUUCAGGUUGAUGAGAATT against SLC25A17 | inactive: 0.0311
52 | CCAUCGCCUCAGUUGCUAUTT against CORIN | inactive: -0.0274
53 | GGAUCCUAUUUGUCUAUUUTT against PSMD12 | inactive: 0.956
54 | ACUGUAAUCAGGAUUCUCATT against ANXA10 | inactive: 0.0445

Copied from the list.
median seed-adjusted z-score, ACACGUUCAUGCUAAAGCATT against HDAC5 reads inactive: -0.342
median seed-adjusted z-score, CAGUUUAUCUUCGUAUACATT against ATXN2 reads inactive: 0
median seed-adjusted z-score, GACUGUCACUUCUUACAGATT against ANGEL2 reads inactive: -0.59
